Measured values reported in paper doi:10.1101/2025.11.25.690242.
Results are given in words; binding and its absence hold for the method and conditions named. Binding seen in cells or lysates may run through a third protein. Some results given as binding are weak or reduced against the parent protein; the word gives no strength.

Protein sequences, listed by entry. Tags and fused reporters are not part of them.
UniProt P97302: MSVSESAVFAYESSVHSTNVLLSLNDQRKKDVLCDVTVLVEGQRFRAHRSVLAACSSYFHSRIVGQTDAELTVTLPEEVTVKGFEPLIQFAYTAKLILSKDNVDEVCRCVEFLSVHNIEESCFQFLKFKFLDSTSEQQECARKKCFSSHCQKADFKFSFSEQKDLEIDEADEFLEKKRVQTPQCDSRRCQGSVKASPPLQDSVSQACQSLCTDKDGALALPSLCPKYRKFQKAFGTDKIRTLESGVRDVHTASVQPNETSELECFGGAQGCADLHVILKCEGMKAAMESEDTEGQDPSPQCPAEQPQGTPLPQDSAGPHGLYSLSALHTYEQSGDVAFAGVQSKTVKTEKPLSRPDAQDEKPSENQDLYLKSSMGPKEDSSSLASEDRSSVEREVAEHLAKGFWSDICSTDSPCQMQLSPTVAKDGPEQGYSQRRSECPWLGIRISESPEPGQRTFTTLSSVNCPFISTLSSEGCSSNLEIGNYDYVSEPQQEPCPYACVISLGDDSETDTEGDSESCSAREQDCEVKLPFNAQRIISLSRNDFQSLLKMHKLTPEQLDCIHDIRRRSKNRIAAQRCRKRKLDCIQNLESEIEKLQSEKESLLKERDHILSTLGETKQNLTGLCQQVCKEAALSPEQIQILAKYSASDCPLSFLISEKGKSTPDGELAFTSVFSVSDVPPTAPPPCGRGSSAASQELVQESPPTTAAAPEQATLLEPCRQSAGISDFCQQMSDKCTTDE
UniProt P54843: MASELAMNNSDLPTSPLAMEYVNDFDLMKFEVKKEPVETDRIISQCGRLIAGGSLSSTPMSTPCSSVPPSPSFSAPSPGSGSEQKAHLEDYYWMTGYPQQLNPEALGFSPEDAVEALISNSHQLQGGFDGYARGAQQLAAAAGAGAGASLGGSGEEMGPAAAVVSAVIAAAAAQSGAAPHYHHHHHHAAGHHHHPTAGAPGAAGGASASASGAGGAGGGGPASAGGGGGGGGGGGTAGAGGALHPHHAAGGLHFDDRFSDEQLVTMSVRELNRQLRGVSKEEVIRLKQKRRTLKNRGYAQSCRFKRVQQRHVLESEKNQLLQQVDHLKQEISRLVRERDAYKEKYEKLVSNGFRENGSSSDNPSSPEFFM

Biological target: BTB and CNC homology factor 1 (BACH1) (mouse (endogenous in murine thymocytes)) (UniProt P97302)
Assay: co-IP

binding: binds
Substance: transcription factor cMAF (from UniProt P54843 1-370)
